According to patent US20250145665A1, “MACROCYCLIC PEPTIDES USEFUL AS MODULATORS OF TNF ALPHA” (Bristol-Myers Squibb Company, priority 2023, published 2025):
Some entries share one result that the patent states for a list of compounds. At least one peptide structure holds a part that was inferred or is arguable (an end, a ring closure or a residue). Starred links: 1 amine or outer side, 2 acyl side, 3 side chain; linkers in the order of their positions; H or OH if unused. Positions of bridges follow the written chain, without caps; N, C: chain ends. Non-standard residues stand in square brackets, D forms with d. Residues, ends and D or L forms follow the SMILES beside them. *: point of attachment. Bip(4'-NHCO-C6H4-3-CH2COOH) = N[C@@H](Cc1ccc(-c2ccc(NC(=O)c3cccc(CC(=O)O)c3)cc2)cc1)C(=O)O; Bip(4'-NHCO-C6H4-4-CH2COOH) = N[C@@H](Cc1ccc(-c2ccc(NC(=O)c3ccc(CC(=O)O)cc3)cc2)cc1)C(=O)O; Bip(4'-(3-HOOC-benzamido)) = N[C@@H](Cc1ccc(-c2ccc(NC(=O)c3cccc(C(=O)O)c3)cc2)cc1)C(=O)O; Bip(4'-NH) = O=C([C@H](Cc1ccc(-c2ccc(N[*:3])cc2)cc1)N[*:1])[*:2]; dArg(ω-Bn(3-CH2OH)) = N=C(NCCC[C@@H](N)C(=O)O)NCc1cccc(CO)c1; Bip(4'-COOH) = N[C@@H](Cc1ccc(-c2ccc(C(=O)O)cc2)cc1)C(=O)O; Bip(4'-NHAc) = CC(=O)Nc1ccc(-c2ccc(C[C@H](N)C(=O)O)cc2)cc1; X7 = N=C(NCCC[C@@H](N[*:1])C(=O)[*:2])NCc1ccc2occc2c1; Ala(morpholin-4-yl) = N[C@@H](CN1CCOCC1)C(=O)O; Benzoyl(3-OCH2COOH) = O=C(O)COc1cccc(C(=O)*)c1; Benzoyl(4-OCH2COOH) = O=C(O)COc1ccc(C(=O)*)cc1; Bip = N[C@@H](Cc1ccc(-c2ccccc2)cc1)C(=O)O; Ala(2-furyl) = N[C@@H](Cc1ccco1)C(=O)O; Tiq1c(1S) = O=C(O)[C@H]1NCCc2ccccc21; Val(3-OH) = CC(C)(O)[C@H](N)C(=O)O; 2Pal = N[C@@H](Cc1ccccn1)C(=O)O; Tic = O=C(O)[C@@H]1Cc2ccccc2CN1; Cha = N[C@@H](CC1CCCCC1)C(=O)O; Chg = N[C@H](C(=O)O)C1CCCCC1; Tle = CC(C)(C)[C@H](N)C(=O)O; Sar = CNCC(=O)O

Chains of the proteins cited; added tags and fusions are not shown. Residues count along the entry.
UniProt P01375, 77-233 limits assumed: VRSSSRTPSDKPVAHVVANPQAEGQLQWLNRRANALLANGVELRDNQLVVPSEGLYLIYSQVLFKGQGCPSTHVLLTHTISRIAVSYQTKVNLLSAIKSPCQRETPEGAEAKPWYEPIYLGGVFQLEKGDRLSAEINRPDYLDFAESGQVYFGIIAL

Biological target: TNFα (Homo sapiens, UniProt P01375)
Experiment: TNF-Induced HEK-Blue Assay
Type: cell-based
Details: summary statement for all examples; read-out: IC50 values measured in the TNF induced HEK-Blue assay

IC50, ≤ 25 µM:
CC[C@H](C)[C@@H]1NC(=O)[C@@H](CCCNC(=N)N)NC(=O)[C@H](CC(=O)O)NC(=O)[C@H](Cc2cnc[nH]2)NC(=O)CN(C)C(=O)[C@H](Cc2ccc(-c3ccc(NC(=O)c4cccc(CC(=O)O)c4)cc3)cc2)NC(=O)[C@H](Cc2ccc(-c3ccccc3)cc2)NC(=O)[C@H](C(C)(C)C)NC(=O)CSC[C@@H](C(=O)NCC(N)=O)NC(=O)[C@H](CC(C)C)NC(=O)[C@H](Cc2cnc[nH]2)NC(=O)[C@H](C(C)C)NC(=O)[C@@H]2CCCN2C1=O [Example 496] ({CH2CO}-[Tle][Bip][Bip(4'-NHCO-C6H4-3-CH2COOH)][Sar]HD[dR]IPVHLCG-NH2; thioether N-13)
CC[C@H](C)[C@@H]1NC(=O)[C@@H](CCCNC(=N)NCc2cccc(CO)c2)NC(=O)[C@H](CC(=O)O)NC(=O)[C@H](Cc2cnc[nH]2)NC(=O)CN(C)C(=O)[C@H](Cc2ccc(-c3ccc(NC(=O)c4cccc(OCC(=O)O)c4)cc3)cc2)NC(=O)[C@H](Cc2ccc(-c3ccccc3)cc2)NC(=O)[C@H](CC2CCCCC2)NC(=O)CSC[C@@H](C(=O)NCC(N)=O)NC(=O)[C@H](CC(C)C)NC(=O)[C@H](Cc2cnc[nH]2)NC(=O)[C@H](C(C)C)NC(=O)[C@@H]2CCCN2C1=O [Example 498] ({CH2CO}-[Cha][Bip][Bip(4'-NH)](Benzoyl(3-OCH2COOH))[Sar]HD[dArg(ω-Bn(3-CH2OH))]IPVHLCG-NH2; thioether N-13)
CC[C@H](C)[C@@H]1NC(=O)[C@@H](CCCNC(=N)NCc2ccc3occc3c2)NC(=O)[C@H](CC(=O)O)NC(=O)[C@H](Cc2cnc[nH]2)NC(=O)CN(C)C(=O)[C@H](Cc2ccc(-c3ccc(NC(=O)c4cccc(OCC(=O)O)c4)cc3)cc2)NC(=O)[C@H](Cc2ccc(-c3ccccc3)cc2)NC(=O)[C@H](CC2CCCCC2)NC(=O)CSC[C@@H](C(=O)NCC(N)=O)NC(=O)[C@H](CC(C)C)NC(=O)[C@H](Cc2cnc[nH]2)NC(=O)[C@H](C(C)C)NC(=O)[C@@H]2CCCN2C1=O [Example 499] ({CH2CO}-[Cha][Bip][Bip(4'-NH)](Benzoyl(3-OCH2COOH))[Sar]HD[X7]IPVHLCG-NH2; thioether N-13)
CC(C)C[C@@H]1NC(=O)[C@H](CCCNC(=N)N)NC(=O)[C@H](C(C)C)NC(=O)[C@@H]2CCCN2C(=O)[C@H](C(C)C)NC(=O)[C@@H](CCCNC(=N)NCc2cccc(CO)c2)NC(=O)[C@H](CC(=O)O)NC(=O)[C@@H]2CCCN2C(=O)CN(C)C(=O)[C@H](Cc2ccc(-c3ccc(NC(=O)c4ccc(OCC(=O)O)cc4)cc3)cc2)NC(=O)[C@H](Cc2ccc(-c3ccccc3)cc2)NC(=O)[C@H](CN2CCOCC2)NC(=O)CSC[C@@H](C(=O)NCC(N)=O)NC1=O [Example 500] ({CH2CO}-[Ala(morpholin-4-yl)][Bip][Bip(4'-NH)](Benzoyl(4-OCH2COOH))[Sar]PD[dArg(ω-Bn(3-CH2OH))]VPVRLCG-NH2; thioether N-13)
CC[C@H](C)[C@@H]1NC(=O)[C@@H](CCCNC(=N)NCc2cccc(CO)c2)NC(=O)[C@H](CC(=O)O)NC(=O)[C@H](Cc2cnc[nH]2)NC(=O)CN(C)C(=O)[C@H](Cc2ccc(-c3ccc(NC(=O)c4cccc(CC(=O)O)c4)cc3)cc2)NC(=O)[C@H](Cc2ccc(-c3ccccc3)cc2)NC(=O)[C@H](CC2CCCCC2)NC(=O)CSC[C@@H](C(=O)NCC(N)=O)NC(=O)[C@H](CC(C)C)NC(=O)[C@H](Cc2c[nH]cn2)NC(=O)[C@H](C(C)C)NC(=O)[C@@H]2CCCN2C1=O [Example 504] ({CH2CO}-[Cha][Bip][Bip(4'-NHCO-C6H4-3-CH2COOH)][Sar]HD[dArg(ω-Bn(3-CH2OH))]IPVHLCG-NH2; thioether N-13)
CC[C@H](C)[C@@H]1NC(=O)[C@@H](CCCNC(=N)NCc2ccc3occc3c2)NC(=O)[C@H](CC(=O)O)NC(=O)[C@H](Cc2cnc[nH]2)NC(=O)CN(C)C(=O)[C@H](Cc2ccc(-c3ccc(NC(=O)c4cccc(CC(=O)O)c4)cc3)cc2)NC(=O)[C@H](Cc2ccc(-c3ccccc3)cc2)NC(=O)[C@H](CC2CCCCC2)NC(=O)CSC[C@@H](C(=O)NCC(N)=O)NC(=O)[C@H](CC(C)C)NC(=O)[C@H](Cc2c[nH]cn2)NC(=O)[C@H](C(C)C)NC(=O)[C@@H]2CCCN2C1=O [Example 505] ({CH2CO}-[Cha][Bip][Bip(4'-NHCO-C6H4-3-CH2COOH)][Sar]HD[X7]IPVHLCG-NH2; thioether N-13)
CC(C)C[C@@H]1NC(=O)[C@H](Cc2c[nH]cn2)NC(=O)[C@H](C2CCCCC2)NC(=O)[C@@H]2CCCN2C(=O)[C@H](C(C)C)NC(=O)[C@@H](CCCNC(=N)N)NC(=O)[C@H](CC(=O)O)NC(=O)[C@H](Cc2cnc[nH]2)NC(=O)CN(C)C(=O)[C@H](Cc2ccc(-c3ccc(NC(=O)c4cccc(C(=O)O)c4)cc3)cc2)NC(=O)[C@H](Cc2ccc(-c3ccccc3)cc2)NC(=O)[C@H](CC2CCCCC2)NC(=O)CSC[C@@H](C(=O)NCC(N)=O)NC1=O [Example 514] ({CH2CO}-[Cha][Bip][Bip(4'-(3-HOOC-benzamido))][Sar]HD[dR]VP[Chg]HLCG-NH2; thioether N-13)
CC[C@H](C)[C@@H]1NC(=O)[C@@H](CCCNC(=N)N)NC(=O)[C@H](CC(=O)O)NC(=O)[C@H](Cc2cnc[nH]2)NC(=O)CN(C)C(=O)[C@H](Cc2ccc(-c3ccc(NC(=O)c4cccc(OCC(=O)O)c4)cc3)cc2)NC(=O)[C@H](Cc2ccc(-c3ccccc3)cc2)NC(=O)[C@H](CC2CCCCC2)NC(=O)CSC[C@@H](C(=O)NCC(N)=O)NC(=O)[C@H](CC(C)C)NC(=O)[C@H](Cc2c[nH]cn2)NC(=O)[C@H](C(C)C)NC(=O)[C@@H]2Cc3ccccc3CN2C1=O [Example 515] ({CH2CO}-[Cha][Bip][Bip(4'-NH)](Benzoyl(3-OCH2COOH))[Sar]HD[dR]I[Tic]VHLCG-NH2; thioether N-13)
CC[C@H](C)[C@@H]1NC(=O)[C@@H](CCCNC(=N)N)NC(=O)[C@H](CC(=O)O)NC(=O)[C@H](Cc2cnc[nH]2)NC(=O)CN(C)C(=O)[C@H](Cc2ccc(-c3ccc(NC(=O)c4cccc(OCC(=O)O)c4)cc3)cc2)NC(=O)[C@H](Cc2ccc(-c3ccccc3)cc2)NC(=O)[C@H](CC2CCCCC2)NC(=O)CSC[C@@H](C(=O)NCC(N)=O)NC(=O)[C@H](CC(C)C)NC(=O)[C@H](Cc2c[nH]cn2)NC(=O)[C@H](C(C)C)NC(=O)[C@@H]2c3ccccc3CCN2C1=O [Example 516] ({CH2CO}-[Cha][Bip][Bip(4'-NH)](Benzoyl(3-OCH2COOH))[Sar]HD[dR]I[Tiq1c(1S)]VHLCG-NH2; thioether N-13)
CC(=O)Nc1ccc(-c2ccc(C[C@@H]3NC(=O)[C@H](Cc4ccc(-c5ccccc5)cc4)NC(=O)[C@H](C(C)(C)O)NC(=O)CSC[C@@H](C(=O)NCC(N)=O)NC(=O)[C@H](CC(C)C)NC(=O)[C@H](Cc4cnc[nH]4)NC(=O)[C@H](C(C)C)NC(=O)[C@@H]4CCCN4C(=O)[C@H](C(C)C)NC(=O)[C@@H](CCCNC(=N)N)NC(=O)[C@H](CC(=O)O)NC(=O)[C@H](Cc4ccccn4)NC(=O)CN(C)C3=O)cc2)cc1 [Example 518] ({CH2CO}-[Val(3-OH)][Bip][Bip(4'-NHAc)][Sar][2Pal]D[dR]VPVHLCG-NH2; thioether N-13)
CC(=O)Nc1ccc(-c2ccc(C[C@@H]3NC(=O)[C@H](Cc4ccc(-c5ccccc5)cc4)NC(=O)[C@H](CN4CCOCC4)NC(=O)CSC[C@@H](C(=O)NCC(N)=O)NC(=O)[C@H](CC(C)C)NC(=O)[C@H](Cc4cnc[nH]4)NC(=O)[C@H](C(C)C)NC(=O)[C@@H]4CCCN4C(=O)[C@H](C(C)C)NC(=O)[C@@H](CCCNC(=N)N)NC(=O)[C@H](CC(=O)O)NC(=O)[C@H](Cc4ccco4)NC(=O)CN(C)C3=O)cc2)cc1 [Example 519] ({CH2CO}-[Ala(morpholin-4-yl)][Bip][Bip(4'-NHAc)][Sar][Ala(2-furyl)]D[dR]VPVHLCG-NH2; thioether N-13)
CC(=O)Nc1ccc(-c2ccc(C[C@@H]3NC(=O)[C@H](Cc4ccc(-c5ccc(C(=O)O)cc5)cc4)NC(=O)[C@H](CN4CCOCC4)NC(=O)CSC[C@@H](C(=O)NCC(N)=O)NC(=O)[C@H](CC(C)C)NC(=O)[C@H](Cc4cnc[nH]4)NC(=O)[C@H](C(C)C)NC(=O)[C@@H]4CCCN4C(=O)[C@H](C(C)C)NC(=O)[C@@H](CCCNC(=N)N)NC(=O)[C@H](CC(=O)O)NC(=O)[C@H](Cc4ccco4)NC(=O)CN(C)C3=O)cc2)cc1 [Example 520] ({CH2CO}-[Ala(morpholin-4-yl)][Bip(4'-COOH)][Bip(4'-NHAc)][Sar][Ala(2-furyl)]D[dR]VPVHLCG-NH2; thioether N-13)
CC[C@H](C)[C@@H]1NC(=O)[C@@H](CCCNC(=N)N)NC(=O)[C@H](CC(=O)O)NC(=O)[C@H](Cc2ccccn2)NC(=O)CN(C)C(=O)[C@H](Cc2ccc(-c3ccc(NC(C)=O)cc3)cc2)NC(=O)[C@H](Cc2ccc(-c3ccccc3)cc2)NC(=O)[C@H](CN2CCOCC2)NC(=O)CSC[C@@H](C(=O)NCC(N)=O)NC(=O)[C@H](CC(C)C)NC(=O)[C@H](Cc2cnc[nH]2)NC(=O)[C@H](C(C)C)NC(=O)[C@@H]2CCCN2C1=O [Example 522] ({CH2CO}-[Ala(morpholin-4-yl)][Bip][Bip(4'-NHAc)][Sar][2Pal]D[dR]IPVHLCG-NH2; thioether N-13)
CC(=O)Nc1ccc(-c2ccc(C[C@@H]3NC(=O)[C@H](Cc4ccc(-c5ccccc5)cc4)NC(=O)[C@H](CN4CCOCC4)NC(=O)CSC[C@@H](C(=O)NCC(N)=O)NC(=O)[C@H](CC(C)C)NC(=O)[C@H](Cc4c[nH]cn4)NC(=O)[C@H](C4CCCCC4)NC(=O)[C@@H]4CCCN4C(=O)[C@H](C(C)C)NC(=O)[C@@H](CCCNC(=N)N)NC(=O)[C@H](CC(=O)O)NC(=O)[C@H](Cc4ccco4)NC(=O)CN(C)C3=O)cc2)cc1 [Example 524] ({CH2CO}-[Ala(morpholin-4-yl)][Bip][Bip(4'-NHAc)][Sar][Ala(2-furyl)]D[dR]VP[Chg]HLCG-NH2; thioether N-13)
CC(C)C[C@@H]1NC(=O)[C@H](Cc2cnc[nH]2)NC(=O)[C@H](C(C)C)NC(=O)[C@@H]2CCCN2C(=O)[C@H](C(C)C)NC(=O)[C@@H](CCCNC(=N)N)NC(=O)[C@H](CC(=O)O)NC(=O)[C@H](Cc2cnc[nH]2)NC(=O)CN(C)C(=O)[C@H](Cc2ccc(-c3ccc(NC(=O)c4ccc(CC(=O)O)cc4)cc3)cc2)NC(=O)[C@H](Cc2ccc(-c3ccccc3)cc2)NC(=O)[C@H](CC2CCCCC2)NC(=O)CSC[C@@H](C(=O)NCC(N)=O)NC1=O [Example 526] ({CH2CO}-[Cha][Bip][Bip(4'-NHCO-C6H4-4-CH2COOH)][Sar]HD[dR]VPVHLCG-NH2; thioether N-13)
